From publication PMC3094350
These are yes or no findings as the source states them, for the method shown. Binding seen in cells or lysates may run through a third protein. Some binding calls cover weakened binding; strength is not graded here.

Sequences of proteins named here, by UniProt entry; tags and fusion partners are left off.
UniProt Q14289: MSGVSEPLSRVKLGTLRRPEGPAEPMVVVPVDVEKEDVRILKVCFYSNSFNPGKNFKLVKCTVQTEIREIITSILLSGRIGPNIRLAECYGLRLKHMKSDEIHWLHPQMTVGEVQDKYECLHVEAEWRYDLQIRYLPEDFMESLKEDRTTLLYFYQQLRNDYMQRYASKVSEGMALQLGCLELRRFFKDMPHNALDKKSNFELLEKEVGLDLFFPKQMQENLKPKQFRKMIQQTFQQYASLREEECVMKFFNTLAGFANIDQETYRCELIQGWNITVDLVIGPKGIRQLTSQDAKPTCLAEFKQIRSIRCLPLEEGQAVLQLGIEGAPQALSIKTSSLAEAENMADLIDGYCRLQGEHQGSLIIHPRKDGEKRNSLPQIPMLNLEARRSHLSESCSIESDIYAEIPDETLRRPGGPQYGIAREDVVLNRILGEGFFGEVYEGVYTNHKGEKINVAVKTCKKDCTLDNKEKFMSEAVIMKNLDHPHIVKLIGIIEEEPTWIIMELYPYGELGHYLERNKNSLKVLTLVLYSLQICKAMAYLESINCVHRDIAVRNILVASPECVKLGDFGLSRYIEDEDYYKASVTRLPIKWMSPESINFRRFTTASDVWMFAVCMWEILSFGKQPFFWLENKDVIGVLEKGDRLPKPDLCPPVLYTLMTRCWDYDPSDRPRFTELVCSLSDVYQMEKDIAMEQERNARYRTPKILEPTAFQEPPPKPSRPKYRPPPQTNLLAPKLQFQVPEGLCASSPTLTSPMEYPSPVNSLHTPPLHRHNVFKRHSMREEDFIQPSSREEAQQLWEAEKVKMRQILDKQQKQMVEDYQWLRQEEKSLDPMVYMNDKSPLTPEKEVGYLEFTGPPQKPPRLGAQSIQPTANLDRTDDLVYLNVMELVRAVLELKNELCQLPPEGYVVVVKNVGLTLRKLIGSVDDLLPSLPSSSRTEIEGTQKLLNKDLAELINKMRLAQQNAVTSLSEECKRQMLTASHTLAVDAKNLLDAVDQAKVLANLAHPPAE
UniProt Q8TDY2: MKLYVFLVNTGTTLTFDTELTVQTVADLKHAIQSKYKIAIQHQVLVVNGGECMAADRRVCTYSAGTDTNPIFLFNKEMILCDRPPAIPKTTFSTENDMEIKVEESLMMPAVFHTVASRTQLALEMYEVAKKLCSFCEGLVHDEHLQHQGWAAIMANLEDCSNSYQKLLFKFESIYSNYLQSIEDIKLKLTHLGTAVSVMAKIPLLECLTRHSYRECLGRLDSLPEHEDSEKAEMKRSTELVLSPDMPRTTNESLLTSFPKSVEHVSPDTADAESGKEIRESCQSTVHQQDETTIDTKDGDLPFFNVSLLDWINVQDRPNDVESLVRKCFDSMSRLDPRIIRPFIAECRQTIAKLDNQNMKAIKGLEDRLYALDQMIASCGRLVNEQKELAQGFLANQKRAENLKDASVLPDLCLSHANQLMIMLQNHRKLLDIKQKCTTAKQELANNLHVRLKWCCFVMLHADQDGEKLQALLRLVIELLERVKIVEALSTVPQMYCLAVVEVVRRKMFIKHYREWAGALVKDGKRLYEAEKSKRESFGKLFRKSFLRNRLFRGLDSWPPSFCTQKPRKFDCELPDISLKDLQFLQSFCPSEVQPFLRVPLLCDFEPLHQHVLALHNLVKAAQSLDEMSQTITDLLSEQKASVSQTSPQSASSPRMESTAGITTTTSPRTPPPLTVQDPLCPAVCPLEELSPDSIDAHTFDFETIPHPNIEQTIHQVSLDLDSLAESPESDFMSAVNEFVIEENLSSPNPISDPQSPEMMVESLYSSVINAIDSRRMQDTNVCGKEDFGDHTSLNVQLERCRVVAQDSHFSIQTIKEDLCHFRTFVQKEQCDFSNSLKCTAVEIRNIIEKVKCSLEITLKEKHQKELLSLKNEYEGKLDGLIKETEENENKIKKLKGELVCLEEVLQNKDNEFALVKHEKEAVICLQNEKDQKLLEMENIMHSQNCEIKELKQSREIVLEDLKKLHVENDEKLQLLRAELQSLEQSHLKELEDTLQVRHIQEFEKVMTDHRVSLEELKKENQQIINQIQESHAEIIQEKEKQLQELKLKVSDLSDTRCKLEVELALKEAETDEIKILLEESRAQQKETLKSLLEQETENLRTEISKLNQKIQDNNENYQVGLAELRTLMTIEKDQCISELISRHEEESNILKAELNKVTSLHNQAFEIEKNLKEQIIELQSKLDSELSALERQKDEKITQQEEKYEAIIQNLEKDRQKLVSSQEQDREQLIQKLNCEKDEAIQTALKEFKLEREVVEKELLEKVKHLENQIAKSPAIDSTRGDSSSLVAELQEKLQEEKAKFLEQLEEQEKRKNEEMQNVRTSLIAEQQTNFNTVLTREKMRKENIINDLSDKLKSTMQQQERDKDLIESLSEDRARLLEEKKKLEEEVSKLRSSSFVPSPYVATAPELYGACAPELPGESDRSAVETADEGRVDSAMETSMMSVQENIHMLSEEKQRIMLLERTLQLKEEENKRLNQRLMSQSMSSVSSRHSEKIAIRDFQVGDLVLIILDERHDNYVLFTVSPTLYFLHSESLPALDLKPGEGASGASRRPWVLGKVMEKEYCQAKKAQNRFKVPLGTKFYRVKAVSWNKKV

How the values were obtained:
[1] = molecular target: proline-rich tyrosine kinase 2 (Pyk2) (human (endogenous in U-87MG and primary human brain MvEC)) (UniProt Q14289); assay: co-IP; endogenous proteins from U-87MG cells in complete media, treated with siFIP200 or mutant siFIP200 (72-96 h); 1% NP40 lysis buffer; 50 to 200 ug lysate with 5-10 ug antibody, TrueBlot anti-rabbit IP beads overnight at 4°C; immunoblot
[2] = molecular target: proline-rich tyrosine kinase 2 (Pyk2) (human (endogenous in U-87MG and primary human brain MvEC)) (UniProt Q14289); assay: co-IP; endogenous proteins from primary human brain MvEC in complete media, treated with siFIP200 or mutant siFIP200 (72-96 h); 1% NP40 lysis buffer; 50 to 200 ug lysate with 5-10 ug antibody, TrueBlot anti-rabbit IP beads overnight at 4°C; immunoblot

What does the source list for “focal adhesion kinase family interacting protein of 200-kDa (FIP200) (from UniProt Q8TDY2 1-1594)”?
binding [1]: binds; binding [2]: binds
